Source: PubChem BioAssay AID1794845 (National Center for Advancing Translational Sciences (NCATS), 2023)
The whole screen tested about 6,900 compounds, of which fewer than 10 were called active. Calls come from the whole dose curve; as a rule, active = well fitted curve in the direction sought with a large enough effect; inconclusive = small, poorly fitted or top-dose-only effect, or another doubt; inactive = no such curve, though single readings can be large or run the other way. The list shows a part of the results.

The chains behind the UniProt entries cited, without tags or fusion partners. Where a name states a change or a piece, a line headed by the entry shows the natural chain unless it says otherwise.
UniProt C7C422: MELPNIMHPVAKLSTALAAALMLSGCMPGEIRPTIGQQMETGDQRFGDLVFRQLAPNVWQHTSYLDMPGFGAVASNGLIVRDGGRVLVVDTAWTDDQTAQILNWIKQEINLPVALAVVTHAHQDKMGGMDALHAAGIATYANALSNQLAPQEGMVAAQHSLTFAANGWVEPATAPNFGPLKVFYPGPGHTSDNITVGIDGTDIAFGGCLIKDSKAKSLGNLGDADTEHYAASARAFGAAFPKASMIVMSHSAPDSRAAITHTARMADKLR

Each compound was assayed against Metallo-beta-lactamase type 2 (Klebsiella pneumoniae) (UniProt C7C422) (assay: qHTS to identify inhibitors of the New Delhi Metallo-beta-lactamase (NDM): primary screen against the NCATS Gemini Collection). Details: NDM-1 enzyme, meropenem hydrolysis, absorbance 300 nm; at 38.4 µM (top of the series) unless noted.
Outline: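 NDM-1 at 2 nM final in 50 mM HEPES pH 7.0, 1 uM ZnSO4, 0.01% Tween20, preincubated >30 min with compound. Meropenem 50 uM final added; absorbance at 300 nm after 30 min.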
Note: % of control where 0% means no effect.

Compound	activity % (negative = inhibition)
NC(=O)c1nnn([C@H]2CCN3C(=O)[C@@H](Cc4ccccc4)NC(=O)[C@@H]3C2)c1C(N)=O	inactive: -0.053% [at 57.5 µM]
CCCCN1CCN(C(=O)c2cn3ccnc(-c4ccccc4)c3n2)CC1	inactive: 35.2%
COCC1CN(C)CC12CCN(C1CCOCC1)CC2 (stereo not given)	inactive: -3.49%
COc1ccccc1OC1(C(=O)O)CCN(C(=O)CC2CC2)CC1	inactive: 0.0855%
CC(C)CCN1CCC(N2CCN(C(=O)c3ccc(Br)o3)CC2)C1=O (stereo not given)	inactive: 57%
CN(C)C(=O)N1CCC(c2nc(C3CCOC3)n[nH]2)CC1 (stereo not given)	inactive: 10.2%
COc1cccc(CN2CCCC(c3nc(-c4cccnc4)no3)CCNC(=O)CC2)n1 (stereo not given)	inactive: -0.832%
CCc1noc([C@@H]2CC(F)(F)CN2C(=O)Cc2cccnc2)n1	inactive: 4.57%
O=C(O)CCc1conc1-c1ccc(F)cc1	inactive: 1.88%
O=C1CO[C@H]2CN(c3ncccn3)C[C@H]2N1CC1CCCCC1	inactive: 53.2% [at 57.5 µM]
CN(C)c1ccc(C(=O)N[C@H]2C[C@H]3C(=O)NC[C@@H](CCC(=O)N4CCc5ccccc54)N3C2)cc1	inactive: 16.9%
CCc1nc2c(=O)n(CC(=O)N3CCN(c4cccc(C)c4C)CC3)nc(C)c2s1	inactive: 7.54%
O=S(=O)(NCC1Cn2cccc2CN1Cc1ccccc1)c1ccccc1 (stereo not given)	inactive: 6.91%
CN1[C@@H](CCC(=O)NCc2ccco2)CNC(=O)[C@@H]2[C@H]1CCN2Cc1nc2ccccc2n1C	inactive: 22.9%
CN(Cc1ccccc1)C(=O)[C@H]1O[C@H](CCN2CCOCC2)CC[C@@H]1O	inactive: -0.861% [at 57.5 µM]
COc1ccccc1N1CCN(C(=O)CCc2conc2-c2cccc(F)c2)CC1	inactive: 12.3%
CCNC(=O)N1CCCCCCNC(=O)[C@@H]2C[C@@H](c3nc(Cc4ccccc4)no3)C[C@@H]21	inactive: 9.43%
CNC(=O)C1(N2CCC[C@H]2C(=O)N2CC[C@@H](O)C2)CCCCC1	inactive: -3.69% [at 57.5 µM]
CCCn1cc(-c2ccncc2)cc1C(=O)NCc1ccc(C)o1	inactive: 33.3%
Cc1ccc(CN2CCCOCCNC(=O)[C@@H]3CCCC[C@@H]32)o1	inactive: -0.322%
CN1CCCCCCN(C(=O)c2ccc3ccccc3n2)[C@H]2CCC[C@H]2C1=O	inactive: 2.88%
Cc1nn2c(c1-c1ccccc1OCc1ccccc1)N(C(=O)Cc1ccccc1)CCC2	inactive: -3.18% [at 57.5 µM]

Compound	activity % (negative = inhibition)
CC(C)CC(=O)N1CCCC(Cc2nc(C3CCOCC3)no2)C1 (stereo not given)	inactive: -3.12%
CNC(=O)[C@H]1C[C@H](Oc2ccccc2)CN1Cc1cn(C)c2ccc(OC)cc12	inactive: -3.36%
CCN1CCC2(CCC1=O)CN(Cc1cscn1)CCN2C (stereo not given)	inactive: 2.24%
O=C(NC1CCCCC1)N1CCc2n[nH]c(=O)n2CC1	inactive: -1.02%
C=CCS(=O)(=O)N1CCC2(CCCN(CCCc3ccccc3)C2=O)C1 (stereo not given)	inactive: -6.48%
COC[C@H]1CCCN1[C@@H]1[C@H](O)[C@H](CO)O[C@@H]1CNCc1ccc(F)cc1	inactive: 9.85% [at 57.5 µM]
Cc1nc(N(C)C2CCCCC2)ncc1C(C)NC(=O)C1(CO)CC1 (stereo not given)	inactive: 1.76%
CNC(=O)[C@@H]1CN(Cc2ccncc2)C[C@H]1COC	inactive: -1.4%
CC(C)c1nccn1CCCNC(=O)c1ccc(-c2cccnc2)nc1	inactive: 0.34%
CCCNC(=O)N[C@@H]1C[C@H](COc2cccc(C)n2)[C@@H](O)[C@H]1O	inactive: 8.42% [at 57.5 µM]
CNC(=O)c1cc(C)nc2onc(C3CCCN([S+](=O)([O-])c4ccc(C)cc4)C3)c12 (stereo not given)	inactive: 2.21%
Cc1nccn1CC(=O)N1CCCn2cc(-c3cccc(C#N)c3)nc21	inactive: 3.64%
CC[C@H]1CN(C(=O)c2ccnc(Cl)c2)CC[C@H]1CC(=O)N1CCC(C(N)=O)CC1	inactive: 24.3% [at 57.5 µM]
Cc1csc2c(NCCC3CN(c4cnn(C)c(=O)c4)CCO3)ncnc12 (stereo not given)	inactive: 30.3%
O=S(=O)(Cc1ccccc1)N1CCC(n2cnnc2C2CC2)CC1	inactive: -3.91%
O=S(=O)(N[C@H]1[C@H](O)[C@H](O)C[C@@H]1c1ccc(C(F)(F)F)nc1)c1ccc(Cl)cc1	inactive: 33.7%
Cc1cc(CN2CCC3(CC2)CN(C2CCC2)CC3CO)n(C)n1 (stereo not given)	inactive: -7.47%
CCOCCCNC(=O)c1c(C)noc1-c1ccc(OC(F)(F)F)cc1	inactive: 23.1%
CN(Cc1cc(C2CC2)on1)Cc1nnc(C2CC(N)C2)n1C1CC1 (stereo not given)	inactive: 0.335%
Cc1nc(CCNC(=O)c2cnc(-c3cccnc3)nc2)cc(=O)[nH]1	inactive: 27.1%
O=C(CCC1CCCC1)N1CCCC1c1nc(CCOCC2CC2)no1 (stereo not given)	inactive: -3.06%
O=C(N1CC(Oc2ccc(-c3noc(-c4ccccc4)n3)cc2)C1)C1(c2ccccc2)CC1	inactive: -1.27%

Sorted by molecular weight (largest number first): some entries from above
Compound	activity % (negative = inhibition)
O=C(N1CC(Oc2ccc(-c3noc(-c4ccccc4)n3)cc2)C1)C1(c2ccccc2)CC1	inactive: -1.27%
CC[C@H]1CN(C(=O)c2ccnc(Cl)c2)CC[C@H]1CC(=O)N1CCC(C(N)=O)CC1	inactive: 24.3% [at 57.5 µM]
COC[C@H]1CCCN1[C@@H]1[C@H](O)[C@H](CO)O[C@@H]1CNCc1ccc(F)cc1	inactive: 9.85% [at 57.5 µM]
CC(C)c1nccn1CCCNC(=O)c1ccc(-c2cccnc2)nc1	inactive: 0.34%
Cc1nc(N(C)C2CCCCC2)ncc1C(C)NC(=O)C1(CO)CC1 (stereo not given)	inactive: 1.76%

(more compounds)

Compound	activity % (negative = inhibition)
CN(CC1CCOC1)C(=O)Cc1ccccc1 (stereo not given)	inactive: -1.49%
CC(C)(C)C(=O)Nc1nc2c(s1)C[C@@H]1[C@](C)(CO)[C@H](O)CC[C@@]1(C)[C@@H]2CC(=O)O	inactive: 10.8% [at 57.5 µM]
O=C(NCc1ccncc1)c1nc2c(o1)CCN(CCCc1ccccc1)CC2	inactive: 1.72% [at 57.5 µM]
COc1cc(Cl)ccc1C(=O)N1CC[C@@H]2CN(S(C)(=O)=O)[C@@H]2C1	inactive: -6.52%
C[C@@]1(O)CCN(C2CCN(c3ccc(F)cc3)CC2)C[C@@H]1O	inactive: 2.75%
COc1cccc(CN2CCC3(CC2)C(C(=O)O)CC(=O)N3C)c1OC (stereo not given)	inactive: 17.9%
CCS(=O)(=O)N1C[C@@H](C(=O)NCc2ccc(C)o2)[C@H](c2ccncc2)C1	inactive: 13.5%
CCOC(=O)[C@@H]1[C@H]2c3ccccc3N(CCOC)C(=O)[C@H]2N(C(=O)c2ccccc2)[C@@H]1c1ccccc1	inactive: 9.89%
COc1cccc(CN2CCc3nn(Cc4ccccc4)c(=O)n3CC2)n1	inactive: 2.87%
CC(C)C(=O)N1CCn2c(nnc2C2CCN(Cc3cc(Cl)ccc3F)C2)C1 (stereo not given)	inactive: 8.75%
CN(C)C[C@@H]1CN(Cc2ccncc2)C[C@H]1NC(=O)Cc1ccsc1	inactive: -3%
c1ccc(CN(Cc2nc(-c3ccccn3)no2)CC2CC2)cc1	inactive: -0.609%
COC(=O)N(C)Cc1cccc(C(F)(F)F)c1	inactive: 6.8% [at 57.5 µM]
O=C(c1ccc(Cl)s1)N1CCC2(COc3ncccc3S(=O)(=O)N2)C1 (stereo not given)	inactive: 0.515%
CN(C)C(=O)c1nc(-c2cccc(C(F)(F)F)c2)c2cnccn12	inactive: -4.53% [at 57.5 µM]
Cc1ccc(NC(=O)N2CCCC(c3nnc(CN(C)C)n3C)C2)cc1C (stereo not given)	inactive: 4.57%
COc1ccc(OC)c([C@@H]2C[C@H](NC(C)=O)C[C@H](Cc3ccccc3)O2)c1	inactive: -2.32%
CCn1ccnc1CN(C)C(=O)c1ccc2oc(-c3ccc(C(F)(F)F)cc3)nc2c1	inactive: 3.07%
CC(C)N(C(=O)c1ccccc1-c1cc(NC2CC2)nc(N)n1)C(C)C	inactive: 18.4%
Cn1ncc2c(N3CCN(S(N)(=O)=O)CC3)nc(C3CCCC3)nc21	inactive: 14.1%
COC(=O)CCNC(=O)C1CN(S(=O)(=O)c2cccs2)CC12CCCCC2 (stereo not given)	inactive: -0.861%
COc1cc(OC(F)(F)F)ccc1C(=O)N1CCC(C)(C(=O)O)CC1	inactive: -12.9%

Compound	activity % (negative = inhibition)
CC(C)CN(C1CCN(C)CC1)C1CN(C(=O)c2cccs2)C1	inactive: 47.2%
Cc1noc(C)c1S(=O)(=O)NCCc1noc(-c2ccccc2)n1	inactive: 37.7%
O=C(Nc1ccc(F)cc1)N[C@H]1[C@H](O)[C@@H](N2CCOCC2)[C@@H]2OC[C@H]1O2	inactive: 17% [at 57.5 µM]
CNC(=O)[C@@H]1CN(C(=O)c2n[nH]c3ccccc23)C[C@H]1COC	inactive: 22.7%
CC(C)n1cnnc1CC1CCN(S(=O)(=O)Cc2ccccc2)C1 (stereo not given)	inactive: 0.162%
CNC(=O)c1cc[nH]c1C1CCCN(C(=O)CCc2nc3ccccc3s2)C1 (stereo not given)	inactive: 0.27%
COc1cccc(CN2Cc3cc(NS(=O)(=O)c4ccccc4)ccc3OCC2=O)c1OC	inactive: 7.04%
CCS(=O)(=O)N1CCC2(CCC2OC)CC1 (stereo not given)	inactive: 27.6%
Cc1noc(-c2cccs2)c1C(=O)NCc1ccco1	inactive: 9.29%
O=C1CCN(C(=O)CCCc2ccccc2)CCCC(CO)CCN1 (stereo not given)	inactive: 23.5%
Cc1ccc(C#N)c(N2CCN(C3CCCC3)C(CCO)C2)n1 (stereo not given)	inactive: -2.55%
CC(=O)N1CC[C@]2(O)CCN(C(=O)CCCc3ccc(F)cc3)C[C@@H]2C1	inactive: -2.63%
COCCNc1nc(C)nc2c1CCN(C(=O)c1ccoc1)CC2	inactive: 5.77%
CCCc1cnc(C)nc1N1CC[C@@H](NC(=O)c2cnccn2)[C@H](O)C1	inactive: 5.84%
CN(Cc1ccccc1)c1ccc(C(=O)N2CCC(CN3CCCC3=O)CC2)cn1	inactive: 20.2%
COc1ccc(NC(=O)Nc2cnc3c(c2)CCC3)cc1	inactive: 3.07%
COCc1nc(CCNC(=O)C2CC2)no1	inactive: -2.25%
COCCN1CC2(CCCN(Cc3cc(C(C)(C)C)n[nH]3)C2)CCC1=O (stereo not given)	inactive: -1.45%
C[C@@H]1CN(C(=O)c2ccc(-c3ccn[nH]3)cc2)CC[C@@]1(O)C1CCOCC1	inactive: 2.84%
